Results as given in article PMC8315805.
Results are given in words; binding and its absence hold for the method and conditions named. In cells and extracts the contact can be indirect. Some entries that bind do so weakly or less than the wild type. Where a sequence is shown, tags or fusion partners need not be part of it.

Target: GFP-tagged TRIM25 (human (cDNA from HEK293T)), Q14258
Assay: co-IP
Settings: remark: other sources report otherwise

binding: binds
B1: Flag-RIG-I, O95786 1-925 (protein)
chain: MTTEQRRSLQAFQDYIRKTLDPTYILSYMAPWFREEEVQYIQAEKNNKGPMEAATLFLKFLLELQEEGWFRGFLDALDHAGYSGLYEAIESWDFKKIEKLEEYRLLLKRLQPEFKTRIIPTDIISDLSECLINQECEEILQICSTKGMMAGAEKLVECLLRSDKENWPKTLKLALEKERNKFSELWIVEKGIKDVETEDLEDKMETSDIQIFYQEDPECQNLSENSCPPSEVSDTNLYSPFKPRNYQLELALPAMKGKNTIICAPTGCGKTFVSLLICEHHLKKFPQGQKGKVVFFANQIPVYEQQKSVFSKYFERHGYRVTGISGATAENVPVEQIVENNDIIILTPQILVNNLKKGTIPSLSIFTLMIFDECHNTSKQHPYNMIMFNYLDQKLGGSSGPLPQVIGLTASVGVGDAKNTDEALDYICKLCASLDASVIATVKHNLEELEQVVYKPQKFFRKVESRISDKFKYIIAQLMRDTESLAKRICKDLENLSQIQNREFGTQKYEQWIVTVQKACMVFQMPDKDEESRICKALFLYTSHLRKYNDALIISEHARMKDALDYLKDFFSNVRAAGFDEIEQDLTQRFEEKLQELESVSRDPSNENPKLEDLCFILQEEYHLNPETITILFVKTRALVDALKNWIEGNPKLSFLKPGILTGRGKTNQNTGMTLPAQKCILDAFKASGDHNILIATSVADEGIDIAQCNLVILYEYVGNVIKMIQTRGRGRARGSKCFLLTSNAGVIEKEQINMYKEKMMNDSILRLQTWDEAVFREKILHIQTHEKFIRDSQEKPKPVPDKENKKLLCRKCKALACYTADVRVIEECHYTVLGDAFKECFVSRPHPKPKQFSSFEKRAKIFCARQNCSHDWGIHVKYKTFEIPVIKIESFVVEDIATGVQTLYSKWKDFHFEKIPFDPAEMSK
